In the supplement of paper PMC8728848:
The other results are listed elsewhere or left out.

Columns and labels:
Experiment in all cases: glycan array binding signal (z-score within array); higher = stronger binding
Details in all cases: glycan notation: IUPAC condensed, linker removed
[1] = molecular target: GlcNAc(b1-3)Gal(b1-4)GlcNAc
Procedure, shortened: (§1)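 Glycan array data were curated from 3228 arrays in the Consortium for Functional Glycomics database and kept only where the protein sequence was available. Glycan names were converted to IUPAC-condensed notation, and columns mapping to the same glycan were averaged. The binding signal is a within-array Z-score, averaged across arrays of the same protein sequence at different concentrations or buffers and across linkers. Negative Z-scores can be read as non-binding.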

[2] = molecular target: GlcNAc(b1-3)Gal(b1-4)GlcNAc(b1-2)Man(a1-3)[GlcNAc(b1-3)Gal(b1-4)GlcNAc(b1-2)Man(a1-6)]Man(b1-4)GlcNAc(b1-4)GlcNAc
Procedure, shortened: as §1

[3] = molecular target: GlcNAc(b1-3)Gal(b1-4)GlcNAc(b1-2)Man(a1-3)[GlcNAc(b1-3)Gal(b1-4)GlcNAc(b1-2)Man(a1-6)]Man(b1-4)GlcNAc(b1-4)[Fuc(a1-6)]GlcNAc
Procedure, shortened: as §1

[4] = molecular target: GlcNAc(b1-3)Gal(b1-4)GlcNAc(b1-2)[GlcNAc(b1-3)Gal(b1-4)GlcNAc(b1-6)]Man(a1-6)[GlcNAc(b1-3)Gal(b1-4)GlcNAc(b1-2)Man(a1-3)]Man(b1-4)GlcNAc(b1-4)GlcNAc
Procedure, shortened: as §1

[5] = molecular target: GlcNAc(b1-3)Gal(b1-4)GlcNAc(b1-3)Gal(b1-4)GlcNAc
Procedure, shortened: as §1

[6] = molecular target: GlcNAc(b1-3)Gal(b1-4)GlcNAc(b1-3)Gal(b1-4)GlcNAc(b1-2)Man(a1-3)[GlcNAc(b1-3)Gal(b1-4)GlcNAc(b1-3)Gal(b1-4)GlcNAc(b1-2)Man(a1-6)]Man(b1-4)GlcNAc(b1-4)GlcNAc
Procedure, shortened: as §1

[7] = molecular target: GlcNAc(b1-3)Gal(b1-4)GlcNAc(b1-3)Gal(b1-4)GlcNAc(b1-2)Man(a1-3)[GlcNAc(b1-3)Gal(b1-4)GlcNAc(b1-3)Gal(b1-4)GlcNAc(b1-2)Man(a1-6)]Man(b1-4)GlcNAc(b1-4)[Fuc(a1-6)]GlcNAc
Procedure, shortened: as §1

[8] = molecular target: GlcNAc(b1-3)Gal(b1-4)GlcNAc(b1-3)Gal(b1-4)GlcNAc(b1-2)[GlcNAc(b1-3)Gal(b1-4)GlcNAc(b1-3)Gal(b1-4)GlcNAc(b1-6)]Man(a1-6)[GlcNAc(b1-3)Gal(b1-4)GlcNAc(b1-3)Gal(b1-4)GlcNAc(b1-2)Man(a1-3)]Man(b1-4)GlcNAc(b1-4)[Fuc(a1-6)]GlcNAc
Procedure, shortened: as §1

[9] = molecular target: GlcNAc(b1-3)Gal(b1-4)GlcNAc(b1-3)Gal(b1-4)GlcNAc(b1-3)Gal(b1-4)GlcNAc(b1-2)Man(a1-3)[GlcNAc(b1-3)Gal(b1-4)GlcNAc(b1-3)Gal(b1-4)GlcNAc(b1-3)Gal(b1-4)GlcNAc(b1-2)Man(a1-6)]Man(b1-4)GlcNAc(b1-4)GlcNAc
Procedure, shortened: as §1

[10] = molecular target: GlcNAc(b1-3)Gal(b1-4)GlcNAc(b1-3)Gal(b1-4)GlcNAc(b1-3)Gal(b1-4)GlcNAc(b1-2)Man(a1-3)[GlcNAc(b1-3)Gal(b1-4)GlcNAc(b1-3)Gal(b1-4)GlcNAc(b1-3)Gal(b1-4)GlcNAc(b1-2)Man(a1-6)]Man(b1-4)GlcNAc(b1-4)[Fuc(a1-6)]GlcNAc
Procedure, shortened: as §1

[11] = molecular target: GlcNAc(b1-3)Gal(b1-4)GlcNAc(b1-3)Gal(b1-4)GlcNAc(b1-3)Gal(b1-4)GlcNAc(b1-2)[GlcNAc(b1-3)Gal(b1-4)GlcNAc(b1-3)Gal(b1-4)GlcNAc(b1-3)Gal(b1-4)GlcNAc(b1-6)]Man(a1-6)[GlcNAc(b1-3)Gal(b1-4)GlcNAc(b1-3)Gal(b1-4)GlcNAc(b1-3)Gal(b1-4)GlcNAc(b1-2)Man(a1-3)]Man(b1-4)GlcNAc(b1-4)[Fuc(a1-6)]GlcNAc
Procedure, shortened: as §1

[12] = molecular target: GlcNAc(b1-3)Gal(b1-4)GlcNAc(b1-3)Gal(b1-4)GlcNAc(b1-3)Gal(b1-4)GlcNAc(b1-3)Gal(b1-4)GlcNAc(b1-2)Man(a1-3)[GlcNAc(b1-3)Gal(b1-4)GlcNAc(b1-3)Gal(b1-4)GlcNAc(b1-3)Gal(b1-4)GlcNAc(b1-3)Gal(b1-4)GlcNAc(b1-2)Man(a1-6)]Man(b1-4)GlcNAc(b1-4)GlcNAc
Procedure, shortened: as §1

[13] = molecular target: GlcNAc(b1-3)Gal(b1-4)GlcNAc(b1-3)Gal(b1-4)GlcNAc(b1-3)Gal(b1-4)GlcNAc(b1-3)Gal(b1-4)GlcNAc(b1-2)Man(a1-3)[GlcNAc(b1-3)Gal(b1-4)GlcNAc(b1-3)Gal(b1-4)GlcNAc(b1-3)Gal(b1-4)GlcNAc(b1-3)Gal(b1-4)GlcNAc(b1-2)Man(a1-6)]Man(b1-4)GlcNAc(b1-4)[Fuc(a1-6)]GlcNAc
Procedure, shortened: as §1

[14] = molecular target: GlcNAc(b1-3)Gal(b1-4)GlcNAc(b1-3)Gal(b1-4)GlcNAc(b1-3)Gal(b1-4)GlcNAc(b1-3)Gal(b1-4)GlcNAc(b1-2)[GlcNAc(b1-3)Gal(b1-4)GlcNAc(b1-3)Gal(b1-4)GlcNAc(b1-3)Gal(b1-4)GlcNAc(b1-3)Gal(b1-4)GlcNAc(b1-6)]Man(a1-6)[GlcNAc(b1-3)Gal(b1-4)GlcNAc(b1-3)Gal(b1-4)GlcNAc(b1-3)Gal(b1-4)GlcNAc(b1-3)Gal(b1-4)GlcNAc(b1-2)Man(a1-3)]Man(b1-4)GlcNAc(b1-4)[Fuc(a1-6)]GlcNAc
Procedure, shortened: as §1

[15] = molecular target: GlcNAc(b1-3)Gal(b1-4)GlcNAc(b1-3)Gal(b1-4)GlcNAc(b1-3)GalNAc
Procedure, shortened: as §1

[16] = molecular target: GlcNAc(b1-3)Gal(b1-4)GlcNAc(b1-3)GalNAc
Procedure, shortened: as §1

[17] = molecular target: GlcNAc(b1-3)Gal(b1-4)GlcNAc(b1-3)[GlcNAc(b1-3)Gal(b1-4)GlcNAc(b1-3)]GalNAc
Procedure, shortened: as §1

[18] = molecular target: GlcNAc(b1-3)Gal(b1-4)GlcNAc(b1-6)[Gal(b1-3)]GalNAc
Procedure, shortened: as §1

[19] = molecular target: GlcNAc(b1-3)Gal(b1-4)GlcNAc(b1-6)[GlcNAc(b1-3)Gal(b1-3)]GalNAc
Procedure, shortened: as §1

[20] = molecular target: GlcNAc(b1-3)Gal(b1-4)GlcNAc(b1-6)[GlcNAc(b1-3)]Gal(b1-4)GlcNAc
Procedure, shortened: as §1

[21] = molecular target: GlcNAc(b1-3)GalNAc
Procedure, shortened: as §1

[22] = molecular target: GlcNAc(b1-3)Man
Procedure, shortened: as §1

[23] = molecular target: GlcNAc(b1-3)[GlcNAc(b1-4)][GlcNAc(b1-6)]GlcNAc
Procedure, shortened: as §1

[24] = molecular target: GlcNAc(b1-3)[GlcNAc(b1-6)]Gal(b1-4)GlcNAc
Procedure, shortened: as §1

[25] = molecular target: GlcNAc(b1-3)[GlcNAc(b1-6)]GalNAc
Procedure, shortened: as §1

[26] = molecular target: GlcNAc(b1-4)Gal(b1-4)GlcNAc
Procedure, shortened: as §1

[27] = molecular target: GlcNAc(b1-4)GlcNAc
Procedure, shortened: as §1

[28] = molecular target: GlcNAc(b1-4)GlcNAc(b1-4)GlcNAc
Procedure, shortened: as §1

[29] = molecular target: GlcNAc(b1-4)GlcNAc(b1-4)GlcNAc(b1-4)GlcNAc(b1-4)GlcNAc
Procedure, shortened: as §1

[30] = molecular target: GlcNAc(b1-4)GlcNAc(b1-4)GlcNAc(b1-4)GlcNAc(b1-4)GlcNAc(b1-4)GlcNAc
Procedure, shortened: as §1

[31] = molecular target: GlcNAc(b1-4)[GlcNAc(b1-6)]GalNAc
Procedure, shortened: as §1

[32] = molecular target: GlcNAc(b1-6)Gal(b1-4)GlcNAc
Procedure, shortened: as §1

[33] = molecular target: GlcNAc(b1-6)GalNAc
Procedure, shortened: as §1

[34] = molecular target: GlcNAc6S(b1-3)Gal(b1-4)GlcNAc
Procedure, shortened: as §1

[35] = molecular target: Kdn(a2-3)Gal(b1-3)GalNAc
Procedure, shortened: as §1

[36] = molecular target: Kdn(a2-3)Gal(b1-3)GlcNAc
Procedure, shortened: as §1

[37] = molecular target: Kdn(a2-3)Gal(b1-4)Glc
Procedure, shortened: as §1

[38] = molecular target: Kdn(a2-3)Gal(b1-4)GlcNAc
Procedure, shortened: as §1

[39] = molecular target: Kdn(a2-3)Gal(b1-4)[Fuc(a1-3)]GlcNAc
Procedure, shortened: as §1

[40] = molecular target: Kdn(a2-6)Gal(b1-4)GlcNAc
Procedure, shortened: as §1

[41] = molecular target: Man(a1-2)Man(a1-2)Man(a1-3)Man
Procedure, shortened: as §1

[42] = molecular target: Man(a1-2)Man(a1-2)Man(a1-6)[Man(a1-3)]Man
Procedure, shortened: as §1

[43] = molecular target: Man(a1-2)Man(a1-3)Man
Procedure, shortened: as §1

[44] = molecular target: Man(a1-2)Man(a1-3)[Man(a1-2)Man(a1-6)]Man
Procedure, shortened: as §1

[45] = molecular target: Man(a1-2)Man(a1-3)[Man(a1-2)Man(a1-6)]Man(a1-6)[Man(a1-2)Man(a1-2)Man(a1-3)]Man
Procedure, shortened: as §1

B1: Pbx2CASH domain (Cryptococcus neoformans) (protein)
chain: GIPGPNRLYRLSGPIIFTAADQEIATYGYPTGSERAVLRVEGRNTATAIQGDCRRCARVSVKNLVVDGNRKKLGRMRDFQLATGLVVLGGNEGQSIQNSWIKNPRGFTAIHIREGDKLQCSGARVEKNEIGPVGEEYDPEKDGDDPEMSPLGRPLADGVSIACRDSFIRDNTFRDNTDAAIVVYCSPGTLIHA
[1]
  glycan array binding signal (z-score): -0.534
[2]
  glycan array binding signal (z-score): -0.118
[3]
  glycan array binding signal (z-score): -0.072
[4]
  glycan array binding signal (z-score): 1.44
[5]
  glycan array binding signal (z-score): -0.766
[6]
  glycan array binding signal (z-score): 1.5
[7]
  glycan array binding signal (z-score): 0.592
[8]
  glycan array binding signal (z-score): 1.47
[9]
  glycan array binding signal (z-score): 0.656
[10]
  glycan array binding signal (z-score): 0.339
[11]
  glycan array binding signal (z-score): 1.64
[12]
  glycan array binding signal (z-score): -0.177
[13]
  glycan array binding signal (z-score): -0.255
[14]
  glycan array binding signal (z-score): 1.04
[15]
  glycan array binding signal (z-score): 0.639
[16]
  glycan array binding signal (z-score): -0.708
[17]
  glycan array binding signal (z-score): -0.221
[18]
  glycan array binding signal (z-score): -0.855
[19]
  glycan array binding signal (z-score): -0.16
[20]
  glycan array binding signal (z-score): 0.085
[21]
  glycan array binding signal (z-score): -0.111
[22]
  glycan array binding signal (z-score): -0.258
[23]
  glycan array binding signal (z-score): -0.155
[24]
  glycan array binding signal (z-score): -0.258
[25]
  glycan array binding signal (z-score): -0.565
[26]
  glycan array binding signal (z-score): -0.297
[27]
  glycan array binding signal (z-score): -0.629
[28]
  glycan array binding signal (z-score): -0.153
[29]
  glycan array binding signal (z-score): -0.108
[30]
  glycan array binding signal (z-score): -0.04
[31]
  glycan array binding signal (z-score): -0.723
[32]
  glycan array binding signal (z-score): -0.858
[33]
  glycan array binding signal (z-score): -0.438
[34]
  glycan array binding signal (z-score): -0.579
[35]
  glycan array binding signal (z-score): -0.335
[36]
  glycan array binding signal (z-score): 1.29
[37]
  glycan array binding signal (z-score): -0.029
[38]
  glycan array binding signal (z-score): 0.049
[39]
  glycan array binding signal (z-score): 0.079
[40]
  glycan array binding signal (z-score): -0.478
[41]
  glycan array binding signal (z-score): -0.78
[42]
  glycan array binding signal (z-score): -0.569
[43]
  glycan array binding signal (z-score): -0.411
[44]
  glycan array binding signal (z-score): -0.667
[45]
  glycan array binding signal (z-score): -0.401
